From PMC9723947, “Ornate, large, extremophilic (OLE) RNA forms a kink turn necessary for OapC protein recognition and RNA function” come the findings set out here.

Changes are numbered by the printed parent chain. Negatives hold for the conditions tested. For some assays here: At least one verdict was read from the data and is not stated in words by the source. Protein sequences can lack the tags named with them. For at least one entry, the source does not settle the construct or the ends of the probe. For some assays here: Weaker means in comparison with the reference protein, sequence or condition of that experiment.

The target of data set [1] is T1, YbxF/OapC WT (Bacillus halodurans C-125) (UniProt Q9Z9M0).
T1 sequence (looked up): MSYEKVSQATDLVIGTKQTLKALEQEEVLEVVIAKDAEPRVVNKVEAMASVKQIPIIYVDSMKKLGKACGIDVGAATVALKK
Put plainly: filter binding. Conditions: Filter binding: 20 mM Tris-HCl pH 7.5, 150 mM NaCl, 10 mM MgCl2, 1 mM TCEP, ~20 C, 15 min, ~10 pM RNA, recombinant protein, residues 1-82, protein details: N-terminal His6 + PreScission (3C) site, label: 5' 32P.

Data set [2] concerns the target T2, YbxF/OapC G15D (Bacillus halodurans C-125) (UniProt Q9Z9M0).
T2 sequence (looked up, limits assumed): T1 sequence (looked up) with G15D
Put plainly: filter binding. Particulars: Filter binding: 20 mM Tris-HCl pH 7.5, 150 mM NaCl, 10 mM MgCl2, 1 mM TCEP, ~20 C, 15 min, ~10 pM RNA; recombinant protein; protein details: N-terminal His6 + PreScission (3C) site; label: 5' 32P; probe letters rebuilt from the primers and the genome.

Consider “GGAACGAUGAAGCUCCCGAAAGGGAGAAAAGGUA [OLE k-turn U84A]”, for which, in data set [1] (little or none at 1 uM protein, binds at higher concentration), the binding result is on record as “binds more weakly”.
Turning to “GGAUCGAUGAAGCUCCUUGUGAUGGCUUGAGGCGCCCAGCCUUGGGUCAUUGCUGGG [OLE83-137]”, the binding result in data set [1] is “no binding”.
Still for that read-out and setting: for “GGAUCGAUGAAGCUCCUUGUGAUGGCUUGAGGCGCCCAGCCUUGGGUCAUUGCUGGGAGAAA [OLE83-142]” the value was “no binding”.
For the sequence “GGUGUCUUUUAGAAUAAGAGUGGUGCAGUAUUCUAGUCAAUCCUCCAUUCUUGAAGGCGGGGCUAAAAAUCCGCCAAAGGGCACAUCGAUGAAGCUCCUUGUGAUGGCUUGAGGCGCCCAGCCUUGGGUCAUUGCUGGGAGAAAAGGUAGUAGGGCGAUCCACAAAGGCAUGUGGGCGAUGACCCUCCUACUGUGGAGGCCUUUUUCUCUGCUGCUUAUGUAUGGACAUAGGGCAAGAGCAAAGGGUAUGAACCUGCGAAGGCAAGCUAGGGAGCUUGUCAGCAGCGUAGCCUGCCUUGAGUGGAGUAGAGGGGAUUAUGGGUUUUGAAGCAAUCCGCUGUCGGCCAACAGCCAUUGCCUCUCUAGUACCAUAUGAAAUCUGCUCUGCAAAAGAGGAUAAGAGAAUGGCAAGGGAUUGCCGAGGAAAACUCCUAGACUGUUCCAUGGGGACAUUUAAAGAGGAUUACAGUGUGGACUAAGUGGUAAUCCAGUCUGGCGUUUGGUGACAGCGCCAAGUUCAACAUAAAGGGAAACCGCCAGCGCGGCGACGCACUGGUGUUGAAUUGGGAAAUCCUACUGGACCUAAGCCACAGAGUUUACUCUUUAAAUGACCACUCUCAUACAUACGCAGUCGGAACG [OLE1-637 (full-length OLE RNA)]”, the binding result is recorded as “no binding” in data set [2]; “binds” in data set [1] (probe letters rebuilt from the primers and the genome).
